Laboratory results from the supplement of paper PMC10849652.
This is one part of the list.

The chains behind the UniProt entries cited, without tags or fusion partners. Where a name states a change or a piece, a line headed by the entry shows the natural chain unless it says otherwise.
UniProt P11166: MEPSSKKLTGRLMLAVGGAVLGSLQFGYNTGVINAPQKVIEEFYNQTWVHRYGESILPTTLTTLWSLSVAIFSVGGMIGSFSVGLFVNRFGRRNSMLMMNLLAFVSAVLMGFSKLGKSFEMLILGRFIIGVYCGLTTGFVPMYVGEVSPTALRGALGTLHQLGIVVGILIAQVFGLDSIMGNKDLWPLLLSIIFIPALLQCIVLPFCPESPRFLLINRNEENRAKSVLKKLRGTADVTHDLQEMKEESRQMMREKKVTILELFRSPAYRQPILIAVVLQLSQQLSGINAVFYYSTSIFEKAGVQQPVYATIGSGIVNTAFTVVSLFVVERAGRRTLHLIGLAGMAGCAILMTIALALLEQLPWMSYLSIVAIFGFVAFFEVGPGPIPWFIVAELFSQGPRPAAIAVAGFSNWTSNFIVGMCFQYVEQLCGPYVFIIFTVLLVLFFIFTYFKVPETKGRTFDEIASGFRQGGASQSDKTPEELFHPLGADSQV
UniProt Q9H936: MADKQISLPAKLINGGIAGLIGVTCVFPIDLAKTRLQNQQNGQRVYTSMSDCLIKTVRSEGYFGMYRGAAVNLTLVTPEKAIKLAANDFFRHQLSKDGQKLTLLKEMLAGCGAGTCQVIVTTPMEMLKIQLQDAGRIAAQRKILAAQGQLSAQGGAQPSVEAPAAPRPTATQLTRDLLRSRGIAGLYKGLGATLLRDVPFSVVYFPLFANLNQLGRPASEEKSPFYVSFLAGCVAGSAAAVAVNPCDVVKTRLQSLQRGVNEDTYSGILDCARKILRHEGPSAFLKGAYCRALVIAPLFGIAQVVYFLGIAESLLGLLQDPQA
UniProt Q8IWA5: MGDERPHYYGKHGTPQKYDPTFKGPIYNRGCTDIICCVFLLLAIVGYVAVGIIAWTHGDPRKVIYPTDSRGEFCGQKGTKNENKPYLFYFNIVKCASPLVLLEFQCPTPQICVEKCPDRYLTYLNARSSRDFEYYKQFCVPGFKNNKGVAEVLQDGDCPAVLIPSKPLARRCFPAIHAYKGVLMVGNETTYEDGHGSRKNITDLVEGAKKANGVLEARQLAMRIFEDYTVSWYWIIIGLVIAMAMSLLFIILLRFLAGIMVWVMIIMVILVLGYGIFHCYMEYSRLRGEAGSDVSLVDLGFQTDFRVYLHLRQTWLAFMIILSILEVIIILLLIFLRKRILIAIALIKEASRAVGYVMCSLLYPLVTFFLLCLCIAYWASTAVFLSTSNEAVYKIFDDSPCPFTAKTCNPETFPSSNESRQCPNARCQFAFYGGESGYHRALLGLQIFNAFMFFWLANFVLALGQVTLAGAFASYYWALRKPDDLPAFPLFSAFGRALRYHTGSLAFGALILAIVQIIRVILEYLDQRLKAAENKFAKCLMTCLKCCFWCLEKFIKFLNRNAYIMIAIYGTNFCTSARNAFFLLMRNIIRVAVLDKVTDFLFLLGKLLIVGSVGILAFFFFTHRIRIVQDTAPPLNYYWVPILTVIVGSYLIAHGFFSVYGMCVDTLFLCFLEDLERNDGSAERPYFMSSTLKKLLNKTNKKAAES
UniProt Q00325: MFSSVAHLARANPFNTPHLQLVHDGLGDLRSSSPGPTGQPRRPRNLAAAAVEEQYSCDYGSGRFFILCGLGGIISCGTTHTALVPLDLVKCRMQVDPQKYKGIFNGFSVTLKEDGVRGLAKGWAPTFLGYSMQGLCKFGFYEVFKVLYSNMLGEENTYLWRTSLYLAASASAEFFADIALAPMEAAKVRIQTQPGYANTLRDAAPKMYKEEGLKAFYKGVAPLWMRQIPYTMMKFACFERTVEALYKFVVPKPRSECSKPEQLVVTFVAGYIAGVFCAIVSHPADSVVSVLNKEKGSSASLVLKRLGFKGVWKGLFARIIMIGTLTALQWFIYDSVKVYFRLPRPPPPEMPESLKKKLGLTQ
UniProt Q8NEW0: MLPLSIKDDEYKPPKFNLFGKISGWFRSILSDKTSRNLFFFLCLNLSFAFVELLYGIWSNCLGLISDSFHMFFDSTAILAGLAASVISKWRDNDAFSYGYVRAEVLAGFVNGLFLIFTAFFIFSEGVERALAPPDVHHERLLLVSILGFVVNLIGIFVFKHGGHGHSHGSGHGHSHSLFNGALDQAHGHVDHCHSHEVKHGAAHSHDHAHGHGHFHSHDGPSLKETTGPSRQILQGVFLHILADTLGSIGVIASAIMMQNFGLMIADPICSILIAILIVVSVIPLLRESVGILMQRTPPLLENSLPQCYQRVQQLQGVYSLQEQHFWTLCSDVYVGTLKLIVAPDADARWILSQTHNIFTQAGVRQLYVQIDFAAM
UniProt Q9BQT8: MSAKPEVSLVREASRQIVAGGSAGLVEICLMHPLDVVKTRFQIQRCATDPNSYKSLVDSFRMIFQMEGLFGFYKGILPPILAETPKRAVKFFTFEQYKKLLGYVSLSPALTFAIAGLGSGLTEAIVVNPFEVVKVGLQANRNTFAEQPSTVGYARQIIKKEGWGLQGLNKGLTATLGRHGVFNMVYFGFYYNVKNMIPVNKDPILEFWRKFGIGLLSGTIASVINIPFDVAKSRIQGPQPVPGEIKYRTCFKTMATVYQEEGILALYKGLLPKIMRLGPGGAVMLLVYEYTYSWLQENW
UniProt P12235: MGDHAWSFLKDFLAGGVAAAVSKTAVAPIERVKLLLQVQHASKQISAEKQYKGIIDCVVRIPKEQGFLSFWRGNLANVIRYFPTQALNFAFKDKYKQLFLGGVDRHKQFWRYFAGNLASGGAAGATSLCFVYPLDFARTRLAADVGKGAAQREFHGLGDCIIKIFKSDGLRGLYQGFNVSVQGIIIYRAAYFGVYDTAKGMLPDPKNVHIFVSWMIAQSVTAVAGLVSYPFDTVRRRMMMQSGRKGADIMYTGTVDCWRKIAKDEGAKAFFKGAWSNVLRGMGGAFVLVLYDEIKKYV
UniProt Q9HBR0: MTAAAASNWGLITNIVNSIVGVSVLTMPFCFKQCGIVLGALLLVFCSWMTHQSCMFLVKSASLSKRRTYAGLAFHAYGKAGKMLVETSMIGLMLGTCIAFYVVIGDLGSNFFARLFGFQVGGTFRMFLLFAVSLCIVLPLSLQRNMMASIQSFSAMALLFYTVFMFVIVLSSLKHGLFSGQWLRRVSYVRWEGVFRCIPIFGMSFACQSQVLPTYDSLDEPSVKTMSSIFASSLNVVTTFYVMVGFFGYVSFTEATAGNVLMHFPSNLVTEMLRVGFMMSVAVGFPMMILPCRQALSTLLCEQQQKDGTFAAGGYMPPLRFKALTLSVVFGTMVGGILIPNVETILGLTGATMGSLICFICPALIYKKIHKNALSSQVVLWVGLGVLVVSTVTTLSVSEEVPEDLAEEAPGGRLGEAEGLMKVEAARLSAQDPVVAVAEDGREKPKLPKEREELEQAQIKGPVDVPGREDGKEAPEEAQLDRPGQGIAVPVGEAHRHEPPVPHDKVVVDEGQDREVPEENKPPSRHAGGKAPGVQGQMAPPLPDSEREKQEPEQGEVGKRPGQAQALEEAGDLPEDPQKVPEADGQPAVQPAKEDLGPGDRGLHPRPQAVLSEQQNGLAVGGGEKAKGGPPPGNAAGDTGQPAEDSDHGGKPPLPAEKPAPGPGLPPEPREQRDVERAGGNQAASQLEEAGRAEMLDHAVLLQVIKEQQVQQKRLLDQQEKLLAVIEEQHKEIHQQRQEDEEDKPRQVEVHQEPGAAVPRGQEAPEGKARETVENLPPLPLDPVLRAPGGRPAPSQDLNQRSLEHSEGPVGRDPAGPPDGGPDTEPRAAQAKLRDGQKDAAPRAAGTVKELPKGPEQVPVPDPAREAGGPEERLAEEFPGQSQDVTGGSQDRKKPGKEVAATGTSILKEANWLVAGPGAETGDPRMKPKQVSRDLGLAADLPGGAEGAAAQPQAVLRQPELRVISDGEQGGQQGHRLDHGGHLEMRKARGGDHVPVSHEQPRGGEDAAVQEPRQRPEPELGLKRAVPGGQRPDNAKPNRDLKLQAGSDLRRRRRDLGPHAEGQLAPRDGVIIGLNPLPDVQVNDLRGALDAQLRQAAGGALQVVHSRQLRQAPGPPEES
UniProt O00193: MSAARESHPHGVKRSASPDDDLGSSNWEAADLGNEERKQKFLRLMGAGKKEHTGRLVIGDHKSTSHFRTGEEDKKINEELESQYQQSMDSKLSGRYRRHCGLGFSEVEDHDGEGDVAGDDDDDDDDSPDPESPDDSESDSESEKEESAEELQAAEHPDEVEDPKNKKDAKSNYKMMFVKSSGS
UniProt Q6KCM7: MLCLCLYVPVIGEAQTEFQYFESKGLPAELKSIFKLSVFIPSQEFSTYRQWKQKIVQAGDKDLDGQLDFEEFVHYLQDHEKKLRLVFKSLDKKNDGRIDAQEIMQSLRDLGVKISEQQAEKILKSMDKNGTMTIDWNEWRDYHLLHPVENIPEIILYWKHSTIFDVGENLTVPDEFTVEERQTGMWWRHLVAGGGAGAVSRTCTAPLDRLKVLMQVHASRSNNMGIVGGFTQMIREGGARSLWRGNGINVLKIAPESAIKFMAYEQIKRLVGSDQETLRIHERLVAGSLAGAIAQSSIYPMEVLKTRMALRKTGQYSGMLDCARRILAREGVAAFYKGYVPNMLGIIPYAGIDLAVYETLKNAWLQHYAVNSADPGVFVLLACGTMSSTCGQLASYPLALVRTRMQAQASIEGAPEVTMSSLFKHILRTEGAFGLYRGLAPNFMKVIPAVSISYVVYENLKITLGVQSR
UniProt L0R6Q1: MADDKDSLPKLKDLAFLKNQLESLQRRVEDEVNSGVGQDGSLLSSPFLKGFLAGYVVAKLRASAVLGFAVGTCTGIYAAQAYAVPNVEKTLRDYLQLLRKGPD
UniProt Q15599: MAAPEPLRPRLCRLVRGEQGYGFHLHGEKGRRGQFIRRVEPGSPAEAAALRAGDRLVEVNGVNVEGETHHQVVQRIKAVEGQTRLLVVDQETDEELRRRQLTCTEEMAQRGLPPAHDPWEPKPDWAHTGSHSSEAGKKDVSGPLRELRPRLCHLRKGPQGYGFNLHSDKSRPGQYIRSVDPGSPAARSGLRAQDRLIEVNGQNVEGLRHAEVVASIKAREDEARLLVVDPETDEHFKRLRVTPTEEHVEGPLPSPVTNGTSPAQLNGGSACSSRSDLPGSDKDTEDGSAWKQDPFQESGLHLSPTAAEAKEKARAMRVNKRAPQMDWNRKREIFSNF
UniProt Q13485: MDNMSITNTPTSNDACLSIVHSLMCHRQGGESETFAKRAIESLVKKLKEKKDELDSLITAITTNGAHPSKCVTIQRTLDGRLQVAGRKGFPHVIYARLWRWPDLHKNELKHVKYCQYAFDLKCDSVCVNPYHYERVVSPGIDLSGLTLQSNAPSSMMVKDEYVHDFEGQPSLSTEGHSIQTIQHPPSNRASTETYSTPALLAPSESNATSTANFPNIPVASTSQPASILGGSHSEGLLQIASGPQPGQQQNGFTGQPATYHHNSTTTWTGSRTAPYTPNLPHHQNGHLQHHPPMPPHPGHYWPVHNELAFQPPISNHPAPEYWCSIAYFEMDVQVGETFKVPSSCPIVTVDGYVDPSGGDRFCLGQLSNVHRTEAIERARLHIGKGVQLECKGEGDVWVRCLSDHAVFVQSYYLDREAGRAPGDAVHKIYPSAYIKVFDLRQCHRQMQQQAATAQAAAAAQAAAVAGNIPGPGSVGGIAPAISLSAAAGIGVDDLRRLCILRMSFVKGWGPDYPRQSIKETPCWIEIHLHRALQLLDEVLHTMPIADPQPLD
UniProt Q9Y6M5: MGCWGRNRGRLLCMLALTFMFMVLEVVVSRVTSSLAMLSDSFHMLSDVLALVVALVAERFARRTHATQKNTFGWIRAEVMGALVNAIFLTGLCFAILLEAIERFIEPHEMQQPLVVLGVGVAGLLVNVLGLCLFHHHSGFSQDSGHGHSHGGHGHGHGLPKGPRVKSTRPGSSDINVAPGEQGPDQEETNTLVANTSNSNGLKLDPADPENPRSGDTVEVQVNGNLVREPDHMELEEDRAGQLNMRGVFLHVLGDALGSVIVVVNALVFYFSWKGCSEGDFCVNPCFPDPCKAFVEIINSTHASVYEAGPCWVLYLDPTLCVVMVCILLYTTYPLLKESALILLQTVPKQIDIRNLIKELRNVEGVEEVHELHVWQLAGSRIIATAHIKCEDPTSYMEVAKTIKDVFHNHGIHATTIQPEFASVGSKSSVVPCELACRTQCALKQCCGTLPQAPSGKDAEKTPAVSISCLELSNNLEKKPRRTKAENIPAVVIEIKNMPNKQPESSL
UniProt Q8WU79: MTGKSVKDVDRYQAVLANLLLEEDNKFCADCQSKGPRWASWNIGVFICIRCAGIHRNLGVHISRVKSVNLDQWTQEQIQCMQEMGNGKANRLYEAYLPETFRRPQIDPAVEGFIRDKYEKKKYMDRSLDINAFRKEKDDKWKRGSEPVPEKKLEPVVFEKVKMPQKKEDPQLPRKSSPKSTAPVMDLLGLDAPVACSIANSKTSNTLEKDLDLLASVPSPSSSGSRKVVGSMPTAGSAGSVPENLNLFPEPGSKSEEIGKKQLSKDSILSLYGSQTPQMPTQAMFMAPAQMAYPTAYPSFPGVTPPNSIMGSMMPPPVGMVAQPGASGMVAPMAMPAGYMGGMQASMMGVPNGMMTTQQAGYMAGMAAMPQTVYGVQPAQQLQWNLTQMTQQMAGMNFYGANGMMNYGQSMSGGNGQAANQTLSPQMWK

Compound: C[C@@H](Oc1cc(-c2cnn(C3CCNCC3)c2)cnc1N)c1c(Cl)ccc(F)c1Cl [crizotinib]
Experiment: log2 fold change, soluble protein after heating vs DMSO (PISA); higher = thermal stabilisation; K562 lysate, 10 uM; active = over 0.2 and 3.5 SD of the protein, either way, in both replicates (recomputed)
Summary of the method: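 Thermal stability, expressed as log-two fold change relative to solvent controls, is given from duplicates. Crude K562 extract in PBS pH 7.4 with 1 mM MgCl2, at 1 mg/mL protein, was treated with 10 μM compound for 30 min and heated in aliquots for 3 min across 48°C-58°C. After pooling, adjustment to 0.5% NP-40 at 4°C and centrifugation at 21,000xg for 90 min, supernatant protein was measured by TMTpro 16plex LC-MS/MS with channel sums equalised.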

log2 fold change, inactive:
SLIRP (UniProt Q9GZT3) -0.013
SLC25A13 isoform 2 (UniProt Q9UJS0) 0.016
SLC2A1 (UniProt P11166) 0.068
SLC25A22 (UniProt Q9H936) 0.041
SLC44A2 (UniProt Q8IWA5) 0.027
SLC33A1 (UniProt O00400) 0.028
SLC25A3 isoform 2 (UniProt Q00325) -0.018
SLC38A9 (UniProt Q8NBW4) 0.011
SLC6A6 (UniProt P31641) -0.043
SLC30A7 (UniProt Q8NEW0) 0.003
SLC7A5 (UniProt Q01650) -0.069
SLC38A7 (UniProt Q9NVC3) 0.127
SLC43A3 isoform 2 (UniProt Q8NBI5) -0.013
SLC4A1AP (UniProt Q9BWU0) -0.006
SLC27A2 (UniProt O14975) -0.092
SLC36A4 (UniProt Q6YBV0) -0.04
SLC26A6 (UniProt Q9BXS9) -0.023
SLC25A21 (UniProt Q9BQT8) -0.012
SLC25A4 (UniProt P12235) 0.024
SLC38A10 (UniProt Q9HBR0) 0.009
SLC25A42 (UniProt Q86VD7) -0.076
SMAP (UniProt O00193) 0.101
SLC3A2 isoform 3 (UniProt P08195) 0.006
SLC25A25 isoform 3 (UniProt Q6KCM7) -0.039
SLC9A1 (UniProt P19634) 0.024
SLC4A7 isoform 7 (UniProt Q9Y6M7) -0.019
SLC35A4 (UniProt L0R6Q1) -0.084
SLC9A3R2 (UniProt Q15599) 0.026
SMAD4 (UniProt Q13485) 0.031
SLC6A8 isoform 2 (UniProt P48029) -0.055
SLC4A2 (UniProt P04920) 0.006
SLC30A1 (UniProt Q9Y6M5) 0.003
SLC25A31 (UniProt Q9H0C2) -0.012
SMAP2 (UniProt Q8WU79) 0.102
SLC6A8 (UniProt P48029) 0.103
SLC25A5 (UniProt P05141) 0.034
SLC25A1 (UniProt P53007) 0.013
SMAP1 isoform 2 (UniProt Q8IYB5) 0.033

Random excerpt: 2 records from the list, in no set order.
log2 fold change, inactive:
SLC4A2 (UniProt P04920) 0.006
SLC38A9 (UniProt Q8NBW4) 0.011
